A short description of the assay: qHTS Assay for Lipid Storage Modulators in Drosophila S3 Cells.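 For cell number change: cells counted by Cell Tracker Red CMTPX staining in the red channel.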 Particulars: BODIPY lipid droplet fluorescence, 18-24 h; for cell number change: measured here: cell count max response, cells fed with added oleic acid. The essentials: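 Drosophila S3 cells loaded with oleic acid (400 uM, as added) and compounds at several concentrations; lipid droplets imaged by 488-nm laser-scanning cytometry, 500–530 nm intensity and object ratio to cell channel. Percent activity normalized to 20 uM Triacsin C.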
(In qHTS, concentration-response curves come from the screen itself.)

[1] abbreviates: measured here: cell number channel AC50, cells fed with added oleic acid.
Setting [2] is: measured here: lipid fluorescence (Fed channel) AC50, cells fed with added oleic acid.

Some of the results follow. Further columns of the screen follow, without active or inactive calls. The list favours compounds with an active or inconclusive main result. The note in brackets gives the kind of curve behind each potency; many fits are weak.

Turning to `CN1CCN(c2nnc(-c3ccc(F)cc3)c3ccccc23)CC1`, the cell number change stood at 25.4%.

Broadly, the AC50 is the midpoint of the concentration-response curve, whichever way the signal moves. On to `O=C(Nc1ccc(F)cc1F)c1csc(-c2cccs2)n1`, for which the cell number change turned out to be 47.7%. Also, the AC50 under setting [1] was 20.6 µM [rising, single point]. Besides, the half-maximal activity concentration (AC50) under setting [2] is 29.1 µM [rising, single point].

As for `NC(=O)C1CCN(CC(=O)Nc2cc(Cl)ccc2Oc2ccccc2)CC1`, the cell number change was -7.2%. Under setting [2], the half-maximal activity concentration (AC50) is 5.8 µM [falling, single point].

`CCOC(=O)c1c(NC(=O)CSc2n[nH]c(N)n2)sc(CC)c1C`: the cell number change was determined as 1.19%. Besides, the AC50 under setting [2] was 3.26 µM [rising, single point].

`CCn1c(SCC(=O)N2CCCc3ccccc32)nnc1-c1cccs1`: the AC50 under setting [2] is 3.26 µM [rising, partial curve].

Consider `CC1(C)Cc2c(cnn2-c2cccc(F)c2)C(NC(=O)CSc2ccccn2)C1` (centres undefined), for which the cell number change was -8.26%. Further, the AC50 under setting [2] is 0.82 µM [falling, single point].

For the compound `CCCOC(=O)c1[nH]c2c(c1C)C(=O)CC(c1cccs1)C2` (centres undefined), the cell number change was -27.8%. Besides, the concentration at half-maximal activity (AC50) under setting [1] was 1.46 µM [falling, full curve, poor fit]. Besides, the AC50 under setting [2] is 14.6 µM [falling, partial curve, poor fit].

With `CN(CCC1CCCCO1)C(=O)CCc1nnc(Cc2c[nH]c3ccccc23)o1` (centres undefined), the cell number change worked out at 30.4%. The AC50 under setting [1] is 3.66 µM [rising, full curve, poor fit].

On to `CCOc1c(Br)cc(/C=N\NC(=O)c2ccccc2)cc1OC`, for which the AC50 under setting [2] was 14.6 µM [rising, partial curve].

`CN(C(=O)COC(=O)Cc1c(Cl)cccc1Cl)C1CCS(=O)(=O)C1` (centres undefined): the cell number change is -17%. Further, the AC50 under setting [2] was 0.103 µM [falling, full curve, poor fit].

Consider `CCCN1CCC(=O)N([C@H](CN=[N+]=[N-])CC(C)C)CC1`, for which the cell number change turned out to be 7.77%.

Regarding `C=CCn1c(SCC(=O)c2c(N)n(CCC)c(=O)n(C)c2=O)nc2sc(CC)cc2c1=O`, the cell number change came out at 84.1%. Further, under setting [2], the AC50 was 1.03 µM [rising, full curve].

As for `CCSC1=NCCN1C(=O)c1c(-c2ccccc2Cl)noc1C`, the cell number change came to 105%. In addition, the half-maximal activity concentration (AC50) under setting [1] is 29.1 µM [rising, single point]. Further, the concentration at half-maximal activity (AC50) under setting [2] is 29.1 µM [rising, single point].

Consider `O=C(NC1CCCC1)c1cccc2c1C(=O)c1ccc(/C=C/c3ccccc3)cc1S2(=O)=O`, for which the cell number change was -8.93%.

With `OC(CNCCc1ccc(C(F)(F)F)cc1)COc1cccc2ccccc12` (centres undefined), the cell number change was -87.3%. The concentration at half-maximal activity (AC50) under setting [1] is 18.4 µM [falling, single point].

On to `Cc1cc(S(=O)(=O)Nc2ccc(C(=O)N3CCN(C(=O)c4ccco4)CC3)cc2)ccc1F`, for which the cell number change was 31.9%.

With `COc1ccc(NC(=O)CN(C)CC(=O)Nc2ccc3c(c2)CCC3)cc1`, the cell number change is 16.8%. For the same compound, the AC50 under setting [2] was 8.2 µM [rising, partial curve].

With `COc1ccc2c(c1)CC/C(=C\Nc1ccc3c(c1)OCO3)C2=O`, the concentration at half-maximal activity (AC50) by setting is: under setting [1], 0.206 µM [rising, full curve]; under setting [2], 3.26 µM [rising, partial curve, poor fit].

Consider `CC(C)CCNC(=O)C1CCCN(S(=O)(=O)c2ccc(F)cc2)C1` (centres undefined), for which the cell number change was -1.76%.

In the case of `COc1ccccc1NS(=O)(=O)c1ccc2c(c1)NC(=O)C(C)S2` (centres undefined), the cell number change was -56.1%. Under setting [2], the concentration at half-maximal activity (AC50) was 29.1 µM [falling, partial curve, poor fit].

On to `CCOC(=O)c1c(C)[nH]c(C(=O)COC(=O)/C=C/c2ccc(OCC#N)c(OC)c2)c1C`, for which the cell number change stood at 54.7%. For the same compound, the half-maximal activity concentration (AC50) under setting [1] was 23.1 µM [rising, partial curve].

In the case of `COC(=O)c1cc(OC)c(OC)cc1NC(=O)c1cc(C(C)(C)C)oc1C`, the cell number change was -21.7%. Also, under setting [2], the AC50 is 5.17 µM [rising, partial curve, poor fit].

As to `O=C(NNc1ccccc1[N+](=O)[O-])NC1CCCCC1`, the cell number change is -46.4%. Moreover, the AC50 under setting [1] was 0.206 µM [falling, full curve, poor fit].

With `O=S(=O)(NC1c2cccc3cccc(c23)C1N1CCNCC1)c1ccc(Cl)cc1` (centres undefined), the cell number change is -17.3%. Further, under setting [2], the AC50 is 32.6 µM [falling, single point].

On to `CCOC(=O)N1CCN(S(=O)(=O)c2c(C)[nH]c(=O)[nH]c2=O)CC1`, for which the cell number change was -207%. In addition, the half-maximal activity concentration (AC50) under setting [1] was 29.1 µM [falling, partial curve]. For the same compound, the AC50 under setting [2] is 25.9 µM [falling, partial curve].

For `O=C1CCCN2N=C(SCC(=O)Nc3cccc(Cl)c3)SC2=N1`, the cell number change is -18.1%.

Regarding `CC(Sc1nc2cc([N+](=O)[O-])ccc2n1-c1cccc(C(F)(F)F)c1)C(=O)NC(N)=O` (centres undefined), the cell number change was -16.9%. Besides, under setting [2], the half-maximal activity concentration (AC50) was 6.51 µM [falling, single point].

Consider `CCCN(CC(=O)Nc1ccccc1OC)C(=O)c1ccc2ncsc2c1`, for which the cell number change was -2.98%. For the same compound, under setting [2], the half-maximal activity concentration (AC50) is 0.651 µM [rising, full curve, poor fit].

As to `Cc1ccc(S(=O)(=O)N2CCN(C(=O)c3ccccc3OCc3c(C)noc3C)CC2)cc1C`, the cell number change was found to be 77.9%. Further, under setting [1], the AC50 was 8.2 µM [rising, partial curve].

Regarding `O=C(COC(=O)COc1ccccc1[N+](=O)[O-])NC1CCCCC1`, the cell number change was found to be 23.8%. Moreover, under setting [2], the AC50 is 9.2 µM [falling, partial curve].

For the compound `Cc1ccccc1C(=O)Nc1ccc(S(=O)(=O)Nc2onc(C)c2C)cc1`, the cell number change is 34.2%.

In the case of `COc1ccc(S(=O)(=O)N2CCCCCC2)cc1C(=O)OCc1cccc(OC)c1OC`, the cell number change is -38.8%. Moreover, the AC50 under setting [1] was 16.4 µM [falling, single point]. The AC50 under setting [2] was 23.1 µM [falling, single point].

As to `O=C(Nc1ccc(Cl)cc1)Nc1nc(-c2sccc2Br)cs1`, the cell number change was -17.4%. Further, the AC50 under setting [1] was 0.00461 µM [falling, full curve, poor fit]. Besides, the AC50 under setting [2] was 2.91 µM [rising, single point].

Regarding `CSc1snc(SCC(N)=O)c1C#N`, the cell number change was -0.639%. Under setting [1], the AC50 was 0.13 µM [falling, full curve, poor fit]. Further, under setting [2], the AC50 is 0.13 µM [falling, full curve, poor fit].

Turning to `COc1ccc(NC(=S)NNc2ccc([N+](=O)[O-])cc2S(=O)(=O)Nc2ccc(C)cc2C)cc1`, the cell number change is -35%. Besides, the half-maximal activity concentration (AC50) under setting [1] is 29.1 µM [falling, single point]. In addition, the AC50 under setting [2] is 0.0206 µM [falling, full curve, poor fit].

Turning to `CC(C)C(=O)Nc1ccc(S(=O)(=O)Nc2ccccn2)cc1`, the cell number change was 43.5%. In addition, under setting [2], the AC50 is 18.4 µM [rising, partial curve].

Regarding `COc1ccc(N2CCN(C(CNC(=O)c3ccc4c(c3)OCO4)c3ccco3)CC2)cc1` (centres undefined), the cell number change is 24.8%. For the same compound, the AC50 under setting [2] was 13 µM [rising, partial curve].

With `CC(OC(=O)c1cccs1)C(=O)NCc1ccco1` (centres undefined), the cell number change was -11.1%. In addition, the AC50 under setting [2] was 0.13 µM [falling, full curve, poor fit].

As for `CC(C)(C)c1ccc(-c2n[nH]c(=S)n2C2CCCC2)cc1`, the cell number change is -25.2%.

For the compound `O=C(CSc1nnc(NC(=O)c2ccco2)s1)Nc1ccc2c(c1)OCCO2`, the cell number change came out at 8.5%.

With `CC(C)Oc1ccc(C(=O)Nc2ccc3c(c2)n(C)c(=O)n3C)cc1`, the concentration at half-maximal activity (AC50) under setting [2] was 29.1 µM [falling, single point].

For `Cc1ccc(Cn2c(SCC(=O)N/N=C/c3ccc(C)o3)nc3ccccc32)cc1`, the cell number change is 17.5%.

For `N=C1C(c2nc3ccccc3s2)=C(O)CN1CCCO`, the cell number change was determined as 15.2%.

With `CC(=O)c1ccc(N(CC(=O)NC2CCCC2)C(=O)c2csnn2)cc1`, the cell number change was -6.67%.

As to `CCOc1ccc(/C=C2/SC(=S)N(n3c(C)ccc3C)C2=O)cc1`, the cell number change was -60.1%. Under setting [1], the AC50 is 29.1 µM [falling, single point]. Under setting [2], the AC50 was 18.4 µM [falling, single point].

Turning to `Cc1cccc2sc(NC(=O)CCNS(=O)(=O)c3cccs3)nc12`, the cell number change amounted to 21.9%. The AC50 under setting [2] is 0.00517 µM [falling, full curve, poor fit].

Turning to `O=C(CCNC(=O)OCc1ccccc1)NC1CCCCCC1`, the cell number change is -7.09%. For the same compound, the AC50 under setting [2] was 3.66 µM [falling, partial curve].

As to `N#CC1=C(N)C(C#N)(C#N)C(c2cccnc2)C2CN(C(=O)OCc3ccccc3)CC=C12` (centres undefined), the cell number change is -61.1%. Besides, under setting [1], the AC50 was 8.2 µM [falling, partial curve]. For the same compound, the half-maximal activity concentration (AC50) under setting [2] was 18.4 µM [falling, partial curve].

For the compound `CCN(CC)CCCNC(=O)c1ccc(N2CCCCC2)c(NS(=O)(=O)c2ccc(C)cc2)c1`, the cell number change was -10.7%. Moreover, the half-maximal activity concentration (AC50) under setting [2] is 0.651 µM [falling, single point].

Turning to `CCC(=O)Nc1cc(C)c(NC(=O)CCc2ccccc2)cn1`, the cell number change is -11%. Moreover, under setting [2], the concentration at half-maximal activity (AC50) was 29.1 µM [falling, single point].

As for `CC(=O)Nc1ccc(S(=O)(=O)N2CCN(Cc3cccc([N+](=O)[O-])c3)CC2)cc1`, the cell number change is -32%. The AC50 under setting [2] is 2.31 µM [falling, partial curve, poor fit].

On to `CC(C)S(=O)(=O)N1CCCC(C(=O)c2cccc(Cl)c2)C1` (centres undefined), for which the cell number change worked out at 7.54%. The AC50 under setting [2] was 0.116 µM [rising, full curve, poor fit].

`CCN1C(=O)S/C(=C\c2ccc(N3CCOCC3)cc2C)C1=O`: the cell number change was -29.3%. Moreover, the AC50 under setting [2] is 7.31 µM [falling, partial curve].

For `Cc1nnsc1S(=O)(=O)Cc1ccccc1Cl`, the cell number change was -16%.

Turning to `NC(=O)c1ccsc1NC(=O)c1ccco1`, the cell number change was -12.1%. Under setting [2], the AC50 is 0.82 µM [rising, single point].

`COc1ccc(S(=O)(=O)CCC(=O)O)cc1`: the cell number change is -14.4%. Moreover, the AC50 under setting [2] is 23.1 µM [falling, partial curve].

In the case of `Cc1cccc(C)c1NC(=O)COC(=O)C1Cc2ccccc2CN1C(=O)c1ccccc1` (centres undefined), the cell number change is 8.71%.

As to `N#Cc1c(NC(=O)CN2CCN(C(=O)c3ccco3)CC2)sc2c1CCCCC2`, the cell number change was 53.1%. The AC50 under setting [1] was 29.1 µM [rising, single point]. Further, the concentration at half-maximal activity (AC50) under setting [2] is 29.1 µM [rising, partial curve, poor fit].

As to `CC1(c2ccccc2)NC(=O)N(CC(=O)NNC(=O)c2cccc(Cl)c2)C1=O` (centres undefined), the cell number change was -16.9%. The AC50 under setting [2] was 3.26 µM [rising, full curve].

In the case of `Cc1ccc(-c2csc(/C(C#N)=C/Nc3ccc4c(c3)OCCO4)n2)cc1`, the cell number change came to 11.3%. For the same compound, the AC50 under setting [2] was 0.0291 µM [rising, single point].

For the origin of these results see PubChem BioAssay AID2685 (National Center for Advancing Translational Sciences (NCATS), 2010).
